Patent US8748564 (dated 2014)

What was measured:
[1] = general procedure: Fmoc solid-phase peptide synthesis; Tentagel Rink resin; DIC/HOBt; details: whole synthesis, scale 0.05 mmol
[2] = general procedure: Fmoc solid-phase peptide synthesis; Tentagel Rink Amide resin; H-Pro-2-ClTrt resin; DIC/HOBt; details: for final HPLC purity: whole synthesis, scale of the general procedure 0.05-0.9 mmol

Row | Substance | isolated yield ([1]; on loading of starting resin, assuming 85% peptide content) | isolated mass [1] | final HPLC purity [2] | step yield ([2]; coupling step, on amount of N-terminal heptapeptide used, assuming 85% peptide content)
1 | carba-6-[Cpa^2,Hyp^7,Gly(cPe)]dOT | ˜66% | 40.0 mg | 100.0% | –
2 | [AzGly^9]dOT | – | – | 100.0% | ˜39%
